This test has as its target T1, VEGF165 (recombinant, produced by transfected HEK293 cells) (human), P15692.
T1 chain: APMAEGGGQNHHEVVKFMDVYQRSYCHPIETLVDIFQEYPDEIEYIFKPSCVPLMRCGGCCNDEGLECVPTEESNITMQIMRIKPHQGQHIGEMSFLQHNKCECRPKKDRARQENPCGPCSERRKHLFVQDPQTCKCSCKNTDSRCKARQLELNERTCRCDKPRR
The test is described as follows: Western blot of conditioned media from transfected HEK293 cells. Conditions: remark: other sources report otherwise. (In general: Immunoblotting shows a protein as a band on a membrane.)

No constants are given. Whether binding was seen depends on the method and setting. Some binding calls cover weakened binding; strength is not graded here.

B1: VEGF165 (recombinant, produced by transfected HEK293 cells), P15692 207-395 (ligand)
chain: T1 chain
Take B1: the binding result is recorded as “binds”.

The values above are taken from US20100305034A1.
